± gives the standard deviation of the averaged measurements. The entries are a selection whose mix differs from that of the whole data set.
Compound: Nc1ncnc2c1ncn2[C@@H]1O[C@H](COP(=O)(O)OP(=O)(O)NP(=O)(O)O)[C@@H](O)[C@H]1O [adenylyl imidodiphosphate]
Test: NP40-soluble protein abundance relative to vehicle (solubility fold change) (ratio); higher = more soluble protein in presence of AMP-PNP
Method in brief: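 Crude Jurkat lysate, prepared by Dounce homogenisation, was exposed to eight concentrations from 0.1 to 10 mM for 10 min at room temperature and then 3 min at 37 °C. Solubilisation used 0.8% NP40 with benzonase for 60 min at 4 °C, followed by ultracentrifugation and TMT labelling of the supernatant for LC-MS/MS. After vsn normalisation of intensities, each value is the fold change against the detergent-processed vehicle within each replicate, across three independent experiments.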

Amino acid sequences for entries named in this document (tags omitted). A change or cut given only in a name is not applied to a line headed by its entry.
UniProt O43167: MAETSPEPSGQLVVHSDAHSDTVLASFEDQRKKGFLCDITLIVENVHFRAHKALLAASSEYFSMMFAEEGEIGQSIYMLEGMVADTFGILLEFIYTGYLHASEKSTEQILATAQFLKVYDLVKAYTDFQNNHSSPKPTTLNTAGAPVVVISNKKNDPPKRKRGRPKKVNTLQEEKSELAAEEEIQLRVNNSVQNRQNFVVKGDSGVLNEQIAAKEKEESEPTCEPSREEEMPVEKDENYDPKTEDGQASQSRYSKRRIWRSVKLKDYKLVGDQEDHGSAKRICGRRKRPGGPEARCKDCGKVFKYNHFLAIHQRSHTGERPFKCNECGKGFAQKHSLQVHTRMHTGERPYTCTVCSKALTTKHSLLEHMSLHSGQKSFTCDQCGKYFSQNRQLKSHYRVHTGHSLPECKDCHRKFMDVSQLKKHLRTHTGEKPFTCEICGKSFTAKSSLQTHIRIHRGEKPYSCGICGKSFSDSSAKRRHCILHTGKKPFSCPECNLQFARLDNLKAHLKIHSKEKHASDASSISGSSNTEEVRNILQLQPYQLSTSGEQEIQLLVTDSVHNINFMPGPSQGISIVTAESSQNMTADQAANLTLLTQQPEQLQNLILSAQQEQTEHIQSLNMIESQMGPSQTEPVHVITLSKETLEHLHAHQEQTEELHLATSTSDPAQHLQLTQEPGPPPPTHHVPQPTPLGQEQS
UniProt Q16543: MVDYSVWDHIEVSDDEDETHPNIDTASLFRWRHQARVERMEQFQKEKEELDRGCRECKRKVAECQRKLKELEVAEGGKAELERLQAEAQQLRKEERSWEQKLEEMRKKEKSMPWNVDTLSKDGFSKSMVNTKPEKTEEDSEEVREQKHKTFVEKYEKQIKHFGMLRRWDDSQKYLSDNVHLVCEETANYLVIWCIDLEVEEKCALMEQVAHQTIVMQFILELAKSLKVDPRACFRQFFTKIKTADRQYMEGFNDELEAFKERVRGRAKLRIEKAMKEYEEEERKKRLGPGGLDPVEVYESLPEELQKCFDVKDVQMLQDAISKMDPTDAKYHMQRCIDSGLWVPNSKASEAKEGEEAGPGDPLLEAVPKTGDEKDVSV
UniProt O15269: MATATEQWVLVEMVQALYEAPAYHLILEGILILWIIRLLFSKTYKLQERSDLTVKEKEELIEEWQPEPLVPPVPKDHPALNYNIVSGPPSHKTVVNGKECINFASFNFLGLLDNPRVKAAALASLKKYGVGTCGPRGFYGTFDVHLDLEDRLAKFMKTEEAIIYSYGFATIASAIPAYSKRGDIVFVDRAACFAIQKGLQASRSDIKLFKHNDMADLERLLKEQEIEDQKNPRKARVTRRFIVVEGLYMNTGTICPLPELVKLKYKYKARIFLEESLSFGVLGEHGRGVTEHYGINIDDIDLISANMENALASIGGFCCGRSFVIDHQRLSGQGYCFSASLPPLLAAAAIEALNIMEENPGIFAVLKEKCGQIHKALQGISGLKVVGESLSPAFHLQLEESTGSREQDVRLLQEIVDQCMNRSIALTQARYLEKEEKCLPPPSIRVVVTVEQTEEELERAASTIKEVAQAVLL
UniProt O14732: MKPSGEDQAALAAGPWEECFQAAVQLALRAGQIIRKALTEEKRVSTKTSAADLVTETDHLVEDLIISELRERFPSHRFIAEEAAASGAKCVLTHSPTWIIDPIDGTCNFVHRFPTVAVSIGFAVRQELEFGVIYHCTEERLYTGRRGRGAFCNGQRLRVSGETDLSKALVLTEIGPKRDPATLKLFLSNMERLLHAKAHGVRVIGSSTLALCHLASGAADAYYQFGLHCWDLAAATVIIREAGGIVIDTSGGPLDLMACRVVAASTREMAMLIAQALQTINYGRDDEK
UniProt O14967: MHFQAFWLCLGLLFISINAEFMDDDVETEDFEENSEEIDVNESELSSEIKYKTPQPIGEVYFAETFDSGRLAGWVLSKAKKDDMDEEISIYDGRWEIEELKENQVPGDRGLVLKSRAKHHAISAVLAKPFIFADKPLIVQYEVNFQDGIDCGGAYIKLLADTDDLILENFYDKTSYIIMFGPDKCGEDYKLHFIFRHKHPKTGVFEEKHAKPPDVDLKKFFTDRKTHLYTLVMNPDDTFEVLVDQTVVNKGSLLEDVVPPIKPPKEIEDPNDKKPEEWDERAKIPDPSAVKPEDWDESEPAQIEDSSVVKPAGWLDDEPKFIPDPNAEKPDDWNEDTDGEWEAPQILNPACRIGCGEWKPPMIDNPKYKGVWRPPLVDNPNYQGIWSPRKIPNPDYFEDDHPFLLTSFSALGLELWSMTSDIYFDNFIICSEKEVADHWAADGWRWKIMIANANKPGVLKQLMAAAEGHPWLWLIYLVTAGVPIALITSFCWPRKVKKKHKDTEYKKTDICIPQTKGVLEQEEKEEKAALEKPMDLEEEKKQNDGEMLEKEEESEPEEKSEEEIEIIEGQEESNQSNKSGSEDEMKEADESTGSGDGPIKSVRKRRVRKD
UniProt O14657: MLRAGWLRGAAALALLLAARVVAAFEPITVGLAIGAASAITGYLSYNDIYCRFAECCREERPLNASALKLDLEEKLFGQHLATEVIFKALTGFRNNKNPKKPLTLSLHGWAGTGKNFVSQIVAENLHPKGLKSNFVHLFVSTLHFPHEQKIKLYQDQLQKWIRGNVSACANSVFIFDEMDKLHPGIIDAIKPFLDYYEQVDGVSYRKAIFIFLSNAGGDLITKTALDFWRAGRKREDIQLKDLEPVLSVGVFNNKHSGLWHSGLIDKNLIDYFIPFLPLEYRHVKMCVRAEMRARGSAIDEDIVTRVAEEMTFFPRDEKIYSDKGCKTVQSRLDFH
UniProt O00139: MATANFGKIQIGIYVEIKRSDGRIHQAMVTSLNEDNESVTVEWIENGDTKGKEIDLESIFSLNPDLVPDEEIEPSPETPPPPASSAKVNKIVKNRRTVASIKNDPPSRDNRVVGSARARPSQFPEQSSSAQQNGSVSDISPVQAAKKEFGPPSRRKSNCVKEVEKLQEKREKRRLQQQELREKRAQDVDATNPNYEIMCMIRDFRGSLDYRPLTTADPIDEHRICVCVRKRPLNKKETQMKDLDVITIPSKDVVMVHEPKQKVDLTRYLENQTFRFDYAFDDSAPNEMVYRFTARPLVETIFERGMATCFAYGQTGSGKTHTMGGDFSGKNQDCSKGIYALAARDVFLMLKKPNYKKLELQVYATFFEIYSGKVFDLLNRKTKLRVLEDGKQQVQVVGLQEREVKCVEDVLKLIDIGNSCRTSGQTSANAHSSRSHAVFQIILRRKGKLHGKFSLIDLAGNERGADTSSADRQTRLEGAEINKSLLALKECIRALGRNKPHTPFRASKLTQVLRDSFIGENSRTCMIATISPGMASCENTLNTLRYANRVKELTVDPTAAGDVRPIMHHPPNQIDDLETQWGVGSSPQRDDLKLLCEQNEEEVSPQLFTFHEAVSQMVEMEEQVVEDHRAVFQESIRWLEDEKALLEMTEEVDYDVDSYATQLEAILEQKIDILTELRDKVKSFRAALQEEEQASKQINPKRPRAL
UniProt O43488: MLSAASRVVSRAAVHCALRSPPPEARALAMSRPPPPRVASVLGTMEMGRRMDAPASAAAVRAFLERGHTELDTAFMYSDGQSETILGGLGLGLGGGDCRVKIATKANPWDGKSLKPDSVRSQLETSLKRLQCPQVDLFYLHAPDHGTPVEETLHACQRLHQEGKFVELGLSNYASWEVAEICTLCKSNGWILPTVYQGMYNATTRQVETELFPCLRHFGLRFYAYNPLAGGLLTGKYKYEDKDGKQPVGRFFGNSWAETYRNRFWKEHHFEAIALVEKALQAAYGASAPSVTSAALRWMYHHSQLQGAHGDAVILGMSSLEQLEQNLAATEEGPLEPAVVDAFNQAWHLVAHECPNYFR
UniProt P36776: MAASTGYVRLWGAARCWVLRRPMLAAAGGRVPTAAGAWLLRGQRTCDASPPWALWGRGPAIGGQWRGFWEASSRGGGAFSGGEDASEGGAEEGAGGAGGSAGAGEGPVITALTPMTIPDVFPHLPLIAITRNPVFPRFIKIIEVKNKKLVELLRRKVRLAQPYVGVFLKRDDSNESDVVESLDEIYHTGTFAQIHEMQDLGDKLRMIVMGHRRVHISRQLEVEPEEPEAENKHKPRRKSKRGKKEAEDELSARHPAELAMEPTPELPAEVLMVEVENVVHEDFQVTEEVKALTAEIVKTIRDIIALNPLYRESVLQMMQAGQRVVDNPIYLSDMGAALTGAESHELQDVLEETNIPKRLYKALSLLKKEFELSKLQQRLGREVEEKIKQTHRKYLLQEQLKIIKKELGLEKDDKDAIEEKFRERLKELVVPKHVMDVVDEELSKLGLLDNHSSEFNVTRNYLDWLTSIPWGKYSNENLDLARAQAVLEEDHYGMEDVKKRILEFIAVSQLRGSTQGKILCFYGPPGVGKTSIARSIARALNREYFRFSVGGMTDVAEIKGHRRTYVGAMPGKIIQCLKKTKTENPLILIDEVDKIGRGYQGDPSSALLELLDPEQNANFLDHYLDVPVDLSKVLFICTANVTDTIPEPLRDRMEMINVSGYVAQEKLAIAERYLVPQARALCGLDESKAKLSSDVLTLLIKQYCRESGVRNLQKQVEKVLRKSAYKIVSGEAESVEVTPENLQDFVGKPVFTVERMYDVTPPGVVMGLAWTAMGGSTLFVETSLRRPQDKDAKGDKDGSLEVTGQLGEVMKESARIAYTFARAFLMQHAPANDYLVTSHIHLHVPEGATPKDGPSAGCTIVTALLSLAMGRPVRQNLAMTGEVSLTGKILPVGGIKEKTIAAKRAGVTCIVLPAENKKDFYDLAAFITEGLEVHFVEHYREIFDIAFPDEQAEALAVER
UniProt O43852: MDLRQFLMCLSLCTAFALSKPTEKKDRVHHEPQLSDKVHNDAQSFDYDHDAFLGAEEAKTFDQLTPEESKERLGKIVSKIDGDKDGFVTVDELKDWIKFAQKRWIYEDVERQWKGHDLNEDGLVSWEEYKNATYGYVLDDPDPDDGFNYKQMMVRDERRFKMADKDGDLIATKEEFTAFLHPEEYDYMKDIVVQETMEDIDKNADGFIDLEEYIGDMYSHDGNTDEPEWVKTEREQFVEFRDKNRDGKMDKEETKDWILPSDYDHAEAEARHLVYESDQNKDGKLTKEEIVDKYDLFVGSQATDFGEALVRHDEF
UniProt O00471: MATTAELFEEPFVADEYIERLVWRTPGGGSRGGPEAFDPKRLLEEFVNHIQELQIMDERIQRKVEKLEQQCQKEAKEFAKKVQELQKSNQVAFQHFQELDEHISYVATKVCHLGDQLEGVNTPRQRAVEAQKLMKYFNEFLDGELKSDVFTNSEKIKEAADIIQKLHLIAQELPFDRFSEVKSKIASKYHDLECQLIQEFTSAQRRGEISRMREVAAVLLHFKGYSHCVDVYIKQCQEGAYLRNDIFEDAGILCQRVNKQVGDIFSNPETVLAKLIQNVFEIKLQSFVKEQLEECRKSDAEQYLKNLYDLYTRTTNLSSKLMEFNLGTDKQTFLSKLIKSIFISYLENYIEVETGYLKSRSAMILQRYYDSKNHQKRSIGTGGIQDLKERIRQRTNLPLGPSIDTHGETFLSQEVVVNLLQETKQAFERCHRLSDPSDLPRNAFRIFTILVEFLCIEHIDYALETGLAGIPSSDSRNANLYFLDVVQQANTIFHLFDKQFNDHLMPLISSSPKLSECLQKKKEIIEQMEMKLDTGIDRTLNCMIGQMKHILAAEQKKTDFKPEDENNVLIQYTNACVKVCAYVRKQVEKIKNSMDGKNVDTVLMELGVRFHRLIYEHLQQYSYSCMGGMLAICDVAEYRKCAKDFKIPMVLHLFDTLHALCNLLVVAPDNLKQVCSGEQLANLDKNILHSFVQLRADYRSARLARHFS
UniProt O14965: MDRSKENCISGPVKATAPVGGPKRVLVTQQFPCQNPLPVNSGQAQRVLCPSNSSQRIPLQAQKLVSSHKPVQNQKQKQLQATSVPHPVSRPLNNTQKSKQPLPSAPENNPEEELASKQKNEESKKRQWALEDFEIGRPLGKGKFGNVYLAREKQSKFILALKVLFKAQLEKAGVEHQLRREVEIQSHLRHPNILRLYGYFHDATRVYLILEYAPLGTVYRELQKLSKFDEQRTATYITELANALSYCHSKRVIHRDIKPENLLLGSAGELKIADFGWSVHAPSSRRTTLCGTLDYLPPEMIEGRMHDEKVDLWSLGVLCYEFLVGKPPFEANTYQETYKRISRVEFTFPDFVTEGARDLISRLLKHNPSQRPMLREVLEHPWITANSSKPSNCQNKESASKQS
UniProt O43291: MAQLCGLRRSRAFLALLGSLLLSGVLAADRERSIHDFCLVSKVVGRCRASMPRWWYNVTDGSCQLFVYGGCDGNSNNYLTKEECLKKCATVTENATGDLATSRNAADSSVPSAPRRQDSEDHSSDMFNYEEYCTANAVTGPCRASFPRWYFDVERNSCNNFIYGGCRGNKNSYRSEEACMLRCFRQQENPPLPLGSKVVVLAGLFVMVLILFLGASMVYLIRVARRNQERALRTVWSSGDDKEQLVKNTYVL

Target	NP40-soluble protein abundance (concentration: 1mM)	NP40-soluble protein abundance (concentration: 2mM)	NP40-soluble protein abundance (concentration: 4mM)	NP40-soluble protein abundance (concentration: 6mM)	NP40-soluble protein abundance (concentration: 8mM)	NP40-soluble protein abundance (concentration: 10mM)
UniProt O14975 and related entries	1.01 ± 0.047	0.976 ± 0.021	1.012 ± 0.0053	0.992 ± 0.021	1.01 ± 0.03	0.993 ± 0.024
AP3B1 (UniProt O00203)	1.02 ± 0.033	0.997 ± 0.075	1.02 ± 0.06	1.06 ± 0.084	1.06 ± 0.053	1.11 ± 0.064
ZBTB24 (UniProt O43167)	1.02 ± 0.041	1.03 ± 0.075	1.03 ± 0.021	0.952 ± 0.038	0.975 ± 0.023	0.9505 ± 0.0035
K7EL68 and related entries (UniProt Q16543)	1.04 ± 0.028	1.07 ± 0.09	0.995 ± 0.042	1.011 ± 0.009	0.985 ± 0.0074	1.02 ± 0.034
UniProt O43736 and related entries	1.03 ± 0.072	0.998 ± 0.013	0.967 ± 0.044	1 ± 0.017	0.979 ± 0.071	1.03 ± 0.062
K7EJ91 and related entries (UniProt Q8N0Y2)	1.01 ± 0.014	1.021 ± 0.0019	1.03 ± 0.017	1.02 ± 0.03	0.9948 ± 0.0077	1.03 ± 0.018
NDC80 (UniProt O14777)	0.997 ± 0.017	1.03 ± 0.05	1.01 ± 0.021	0.9821 ± 0.0024	0.969 ± 0.025	0.986 ± 0.031
M0R2Z9 and related entries (UniProt Q8IX01)	1.03 ± 0.061	1.05 ± 0.019	1.01 ± 0.037	1 ± 0.046	0.977 ± 0.036	0.995 ± 0.07
TOR1A (UniProt O14656)	1 ± 0.051	0.97 ± 0.034	1.03 ± 0.059	1.07 ± 0.11	1.11 ± 0.087	1.09 ± 0.086
AKAP8 (UniProt O43823)	1.01 ± 0.021	1.08 ± 0.14	1.06 ± 0.032	1.12 ± 0.059	1.12 ± 0.077	1.13 ± 0.09
UniProt O43251-6|O43251-8	0.989 ± 0.032	0.974 ± 0.039	0.984 ± 0.018	0.98 ± 0.015	0.972 ± 0.011	0.973 ± 0.032
OGT (UniProt O15294)	0.98 ± 0.021	0.966 ± 0.026	1 ± 0.035	0.968 ± 0.029	0.959 ± 0.027	0.966 ± 0.036
PSMD9 (UniProt O00233)	1.01 ± 0.034	1.06 ± 0.033	0.988 ± 0.062	0.947 ± 0.021	0.959 ± 0.034	0.92 ± 0.053
KIF1C (UniProt O43896)	0.973 ± 0.016	0.965 ± 0.0051	0.9798 ± 0.0017	0.953 ± 0.011	0.9604 ± 0.0079	0.992 ± 0.019
UniProt O00506	1.05 ± 0.02	1.07 ± 0.01	1.08 ± 0.032	1.01 ± 0.04	1.011 ± 0.0097	1.01 ± 0.028
UniProt O43422	1.01 ± 0.041	0.946 ± 0.04	0.945 ± 0.037	0.931 ± 0.013	0.8954 ± 0.0077	0.904 ± 0.033
UniProt O00422 and related entries	1.02 ± 0.099	1 ± 0.12	0.981 ± 0.12	0.998 ± 0.12	0.962 ± 0.068	1.12 ± 0.21
RNF113A (UniProt O15541)	1.02 ± 0.038	1.04 ± 0.089	0.999 ± 0.029	0.979 ± 0.017	0.935 ± 0.012	0.973 ± 0.035
SPTLC1 (UniProt O15269)	0.99 ± 0.012	0.952 ± 0.072	0.988 ± 0.027	1.02 ± 0.037	1.01 ± 0.036	0.993 ± 0.019
UniProt O14732 and related entries	1.01 ± 0.033	0.982 ± 0.053	0.988 ± 0.026	0.989 ± 0.02	0.987 ± 0.041	0.984 ± 0.025

Target	NP40-soluble protein abundance (concentration: 1mM)	NP40-soluble protein abundance (concentration: 2mM)	NP40-soluble protein abundance (concentration: 4mM)	NP40-soluble protein abundance (concentration: 6mM)	NP40-soluble protein abundance (concentration: 8mM)	NP40-soluble protein abundance (concentration: 10mM)
EEF1E1 (UniProt O43324)	0.918 ± 0.046	0.952 ± 0.088	0.888 ± 0.079	0.861 ± 0.1	0.886 ± 0.14	0.857 ± 0.18
CLGN (UniProt O14967)	1.03 ± 0.06	1.03 ± 0.082	1 ± 0.06	0.987 ± 0.051	0.994 ± 0.049	0.993 ± 0.07
SGTA (UniProt O43765)	1.03 ± 0.052	1.15 ± 0.079	0.99 ± 0.03	1.01 ± 0.037	0.943 ± 0.054	1.02 ± 0.085
M0R0H0 and related entries (UniProt P55899)	1 ± 0.015	1.01 ± 0.021	0.9995 ± 0.0078	1 ± 0.014	1.007 ± 0.01	0.999 ± 0.018
UniProt O00764 and related entries	0.987 ± 0.02	0.929 ± 0.047	0.978 ± 0.029	1.01 ± 0.035	1.03 ± 0.041	1.01 ± 0.028
M0R2S1 and related entries (UniProt P62987)	0.966 ± 0.12	0.954 ± 0.054	0.912 ± 0.08	0.959 ± 0.082	0.948 ± 0.022	0.94 ± 0.02
UniProt O43747 and related entries	0.934 ± 0.056	0.863 ± 0.03	0.932 ± 0.056	1 ± 0.12	1.01 ± 0.1	0.995 ± 0.072
TOR1B (UniProt O14657)	0.961 ± 0.061	0.959 ± 0.044	0.968 ± 0.039	1 ± 0.083	0.999 ± 0.085	1.02 ± 0.08
UniProt O00499-2|O00499-4|O00499-6|O00499-7|O00499-9	1.016 ± 0.0054	1.07 ± 0.046	1.04 ± 0.041	1.01 ± 0.016	0.97 ± 0.018	1 ± 0.062
UniProt O43399 and related entries	0.964 ± 0.049	1.06 ± 0.078	0.977 ± 0.053	0.942 ± 0.067	0.87 ± 0.012	0.949 ± 0.064
UniProt O15371 and related entries	1.04 ± 0.033	1.01 ± 0.091	1.1 ± 0.066	1.12 ± 0.083	1.2 ± 0.093	1.25 ± 0.15
RFXANK (UniProt O14593)	1.01 ± 0.045	0.989 ± 0.03	0.99 ± 0.022	0.9929 ± 0.0085	0.989 ± 0.01	0.988 ± 0.025
UniProt O00139 and related entries	1.1 ± 0.023	1.07 ± 0.095	1.08 ± 0.023	1.05 ± 0.029	1.05 ± 0.02	1.03 ± 0.012
UniProt O43683 and related entries	0.984 ± 0.015	0.978 ± 0.01	0.989 ± 0.015	0.953 ± 0.018	0.934 ± 0.037	0.955 ± 0.024
UniProt O43164 and related entries	1.01 ± 0.034	1.07 ± 0.054	1.04 ± 0.034	0.987 ± 0.031	0.965 ± 0.04	0.999 ± 0.025
UniProt O43488 and related entries	1.03 ± 0.036	0.993 ± 0.034	1.04 ± 0.068	1.03 ± 0.054	1.06 ± 0.041	1.02 ± 0.044
UniProt O15169 and related entries	1.05 ± 0.015	1.047 ± 0.0037	1.03 ± 0.0043	1.038 ± 0.0093	1.018 ± 0.0018	1.032 ± 0.0081
UniProt O43159	1.02 ± 0.018	1.048 ± 0.0069	1.04 ± 0.019	1.02 ± 0.013	1.04 ± 0.052	1.07 ± 0.06
K7EKE6 and related entries (UniProt P36776)	0.9487 ± 0.007	0.907 ± 0.057	0.94 ± 0.023	0.925 ± 0.015	0.92 ± 0.026	0.913 ± 0.046
UniProt O00743 and related entries	0.9646 ± 0.0067	0.868 ± 0.12	0.899 ± 0.062	0.948 ± 0.014	0.966 ± 0.045	0.902 ± 0.12

Target	NP40-soluble protein abundance (concentration: 1mM)	NP40-soluble protein abundance (concentration: 2mM)	NP40-soluble protein abundance (concentration: 4mM)	NP40-soluble protein abundance (concentration: 6mM)	NP40-soluble protein abundance (concentration: 8mM)	NP40-soluble protein abundance (concentration: 10mM)
DENR (UniProt O43583)	1.012 ± 0.0088	1.03 ± 0.053	0.979 ± 0.037	0.966 ± 0.031	0.97 ± 0.03	0.923 ± 0.062
UniProt O14920	0.997 ± 0.018	0.977 ± 0.026	1.02 ± 0.015	1.01 ± 0.027	1.02 ± 0.018	0.996 ± 0.029
UniProt O43852 and related entries	1.003 ± 0.0095	1.07 ± 0.095	0.955 ± 0.029	0.9609 ± 0.0071	0.926 ± 0.016	0.923 ± 0.045
DNM1L (UniProt O00429)	0.982 ± 0.0091	0.9646 ± 0.0086	0.959 ± 0.029	0.969 ± 0.038	0.959 ± 0.033	0.95 ± 0.035
K7EJL1 and related entries (UniProt Q9BXS5)	0.937 ± 0.026	0.854 ± 0.051	0.905 ± 0.015	0.979 ± 0.079	0.996 ± 0.027	0.938 ± 0.043
STX6 (UniProt O43752)	1.01 ± 0.025	1.04 ± 0.028	1 ± 0.05	0.992 ± 0.027	0.973 ± 0.034	0.979 ± 0.019
EXOC5 (UniProt O00471)	0.9819 ± 0.0085	1.01 ± 0.02	0.989 ± 0.013	0.983 ± 0.025	0.974 ± 0.017	0.983 ± 0.02
UniProt O14965 and related entries	1.048 ± 0.0065	1.07 ± 0.037	1.05 ± 0.024	1.05 ± 0.017	1.06 ± 0.018	1.08 ± 0.062
UniProt O00463 and related entries	0.994 ± 0.055	0.984 ± 0.077	0.977 ± 0.049	0.951 ± 0.025	0.915 ± 0.051	0.914 ± 0.041
ARID1A (UniProt O14497)	1.03 ± 0.061	1.07 ± 0.04	1.03 ± 0.039	1.02 ± 0.072	0.988 ± 0.051	1.03 ± 0.07
M0QYZ2 and related entries (UniProt P53680)	0.913 ± 0.053	0.853 ± 0.06	0.911 ± 0.031	0.915 ± 0.034	1 ± 0.04	0.915 ± 0.065
TRAFD1 (UniProt O14545)	1.012 ± 0.0023	1.03 ± 0.013	0.996 ± 0.035	0.97 ± 0.019	0.99 ± 0.041	0.96 ± 0.038
UniProt O14617 and related entries	0.999 ± 0.033	1.03 ± 0.042	1.01 ± 0.015	1.03 ± 0.029	1.01 ± 0.039	1.02 ± 0.016
UniProt O43439-5	1.01 ± 0.021	1.014 ± 0.0005	1 ± 0.054	0.96 ± 0.026	0.954 ± 0.021	0.963 ± 0.041
UniProt O00221 and related entries	1.044 ± 0.01	1.07 ± 0.03	1.05 ± 0.049	0.999 ± 0.014	1.01 ± 0.022	1.02 ± 0.045
UniProt O15085 and related entries	1.01 ± 0.059	1.02 ± 0.015	0.998 ± 0.024	1.006 ± 0.008	1 ± 0.012	0.9835 ± 0.0066
SLC33A1 (UniProt O00400)	1 ± 0.014	0.978 ± 0.059	0.991 ± 0.045	0.964 ± 0.025	0.966 ± 0.032	0.956 ± 0.052
WASL (UniProt O00401)	0.987 ± 0.021	1.01 ± 0.016	0.99 ± 0.033	1.001 ± 0.0023	0.963 ± 0.017	0.9623 ± 0.0052
L0R819 (UniProt Q9NWL6)	1.04 ± 0.017	1.03 ± 0.074	1.01 ± 0.026	0.996 ± 0.089	0.972 ± 0.055	1 ± 0.044
UniProt O43291	1 ± 0.022	1.04 ± 0.029	1.014 ± 0.0041	0.994 ± 0.01	0.996 ± 0.0066	0.9952 ± 9.1e-05

Part of the list above, comma-delimited:
Target,NP40-soluble protein abundance (concentration: 1mM),NP40-soluble protein abundance (concentration: 2mM),NP40-soluble protein abundance (concentration: 4mM),NP40-soluble protein abundance (concentration: 6mM),NP40-soluble protein abundance (concentration: 8mM),NP40-soluble protein abundance (concentration: 10mM)
DENR (UniProt O43583),1.012 ± 0.0088,1.03 ± 0.053,0.979 ± 0.037,0.966 ± 0.031,0.97 ± 0.03,0.923 ± 0.062
UniProt O43852 and related entries,1.003 ± 0.0095,1.07 ± 0.095,0.955 ± 0.029,0.9609 ± 0.0071,0.926 ± 0.016,0.923 ± 0.045
DNM1L (UniProt O00429),0.982 ± 0.0091,0.9646 ± 0.0086,0.959 ± 0.029,0.969 ± 0.038,0.959 ± 0.033,0.95 ± 0.035
STX6 (UniProt O43752),1.01 ± 0.025,1.04 ± 0.028,1 ± 0.05,0.992 ± 0.027,0.973 ± 0.034,0.979 ± 0.019
EXOC5 (UniProt O00471),0.9819 ± 0.0085,1.01 ± 0.02,0.989 ± 0.013,0.983 ± 0.025,0.974 ± 0.017,0.983 ± 0.02
UniProt O14965 and related entries,1.048 ± 0.0065,1.07 ± 0.037,1.05 ± 0.024,1.05 ± 0.017,1.06 ± 0.018,1.08 ± 0.062
UniProt O00463 and related entries,0.994 ± 0.055,0.984 ± 0.077,0.977 ± 0.049,0.951 ± 0.025,0.915 ± 0.051,0.914 ± 0.041
ARID1A (UniProt O14497),1.03 ± 0.061,1.07 ± 0.04,1.03 ± 0.039,1.02 ± 0.072,0.988 ± 0.051,1.03 ± 0.07
UniProt O14617 and related entries,0.999 ± 0.033,1.03 ± 0.042,1.01 ± 0.015,1.03 ± 0.029,1.01 ± 0.039,1.02 ± 0.016
UniProt O15085 and related entries,1.01 ± 0.059,1.02 ± 0.015,0.998 ± 0.024,1.006 ± 0.008,1 ± 0.012,0.9835 ± 0.0066
SLC33A1 (UniProt O00400),1 ± 0.014,0.978 ± 0.059,0.991 ± 0.045,0.964 ± 0.025,0.966 ± 0.032,0.956 ± 0.052
WASL (UniProt O00401),0.987 ± 0.021,1.01 ± 0.016,0.99 ± 0.033,1.001 ± 0.0023,0.963 ± 0.017,0.9623 ± 0.0052
L0R819 (UniProt Q9NWL6),1.04 ± 0.017,1.03 ± 0.074,1.01 ± 0.026,0.996 ± 0.089,0.972 ± 0.055,1 ± 0.044
UniProt O43291,1 ± 0.022,1.04 ± 0.029,1.014 ± 0.0041,0.994 ± 0.01,0.996 ± 0.0066,0.9952 ± 9.1e-05
